Test [1] deals with FPR1 (UniProt P21462). As to the kind of experiment: affinity comparison, method not described.
For test [2], the target named is FPR2 receptor (UniProt P25090). As to the kind of experiment: affinity comparison, method not described.
In test [3] the target is FPR2 receptor (UniProt P25090). As to the kind of experiment: binding affinity assay, method not described.

The chains behind the UniProt entries cited, without tags or fusion partners.
UniProt P21462: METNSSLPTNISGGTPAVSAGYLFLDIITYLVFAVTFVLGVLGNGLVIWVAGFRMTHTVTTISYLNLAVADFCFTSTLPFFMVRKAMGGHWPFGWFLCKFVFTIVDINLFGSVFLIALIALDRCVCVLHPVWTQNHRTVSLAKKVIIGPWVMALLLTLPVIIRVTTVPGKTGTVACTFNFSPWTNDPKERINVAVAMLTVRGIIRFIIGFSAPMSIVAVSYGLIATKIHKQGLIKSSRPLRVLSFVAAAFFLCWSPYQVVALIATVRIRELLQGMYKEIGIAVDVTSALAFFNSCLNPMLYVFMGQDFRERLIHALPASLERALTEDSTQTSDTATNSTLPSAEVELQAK
UniProt P25090: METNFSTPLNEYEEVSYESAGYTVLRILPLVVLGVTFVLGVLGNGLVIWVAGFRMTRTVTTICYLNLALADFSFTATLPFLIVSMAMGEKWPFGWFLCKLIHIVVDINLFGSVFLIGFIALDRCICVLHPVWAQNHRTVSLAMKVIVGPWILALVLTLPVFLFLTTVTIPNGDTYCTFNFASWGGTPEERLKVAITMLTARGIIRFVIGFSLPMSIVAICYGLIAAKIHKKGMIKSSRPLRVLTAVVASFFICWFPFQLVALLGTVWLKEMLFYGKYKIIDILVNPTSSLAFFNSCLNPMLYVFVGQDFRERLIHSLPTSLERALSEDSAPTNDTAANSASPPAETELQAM

Substitutions are numbered along the chain they refer to. These are yes or no findings as the source states them, for the method shown. Some binding calls cover weakened binding; strength is not graded here.

B1: UGP025, Leu25-ANXA1(2-48)-NH2 (peptide)
peptide: AMVSEFLKQAWFIENEEQEYVQTLKSSKGGPGSAVSPYPTFNPSSDV
modifications: amidated at its C-terminus
B1: the binding result in test [1] and in test [2] was “binds” in each case.

B2: UGP021, ANXA1(2-50) Gly51-OH (peptide)
peptide: AMVSEFLKQAWFIENEEQEYVQTVKSSKGGPGSAVSPYPTFNPSSDVAAG
Turning to B2, the binding result in test [3] is listed as “binds”.

B3: UGP022, ANXA1(2-50)-NH2 (peptide)
peptide: AMVSEFLKQAWFIENEEQEYVQTVKSSKGGPGSAVSPYPTFNPSSDVAA
modifications: amidated at its C-terminus
In the case of B3, the binding entry in test [3] is “binds”.

B4: UGP026, Leu25-ANXA1(2-50)-NH2 (peptide)
peptide: B3 peptide with V24L
modifications: amidated at its C-terminus
With B4, the binding entry in test [1] and in test [2] was “binds” throughout.

For the origin of these results see patent US20150315256A1.
